Assay results taken from publication PMC7083106.
Results are given in words; binding and its absence hold for the method and conditions named. Some binding calls cover weakened binding; strength is not graded here.

Amino acid sequences for entries named in this document (tags omitted). A change or cut given only in a name is not applied to a line headed by its entry.
UniProt Q5ZKX6: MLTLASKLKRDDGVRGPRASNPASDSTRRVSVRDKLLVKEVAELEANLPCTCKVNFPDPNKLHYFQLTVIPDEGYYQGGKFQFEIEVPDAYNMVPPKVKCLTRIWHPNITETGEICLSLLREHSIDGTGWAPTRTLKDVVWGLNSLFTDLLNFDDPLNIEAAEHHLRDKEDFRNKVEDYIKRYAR

Target: Eimeria acervulina microneme protein 3 (Eimeria acervulina)
Assay: two-hybrid; DUALhunter (split-ubiquitin) screen in yeast NMY51: bait pDHB1-EaMIC3 against a chicken duodenal epithelial cell cDNA library in pPR3-N; positive prey plasmids retransformed with the bait to eliminate false positives

In the case of “chicken (Gallus gallus) ubiquitin conjugating enzyme E2F (from UniProt Q5ZKX6 1-185)”, the binding is reported as “binds”.
